Here are results for 6 molecules from PubChem BioAssay AID192 (DTP/NCI, 2004).

The list does not hold the whole screen: it is rich in T/C values a quarter to a half above the control, in often repeated tests (any T/C) and in doses without a T/C. Further doses and runs are listed elsewhere. T/C is the treated group as % of the vehicle group. Some doses have a count of surviving animals in place of a T/C: the source holds a T/C of zero for them, seemingly a mark for toxic or unscored doses. Some survivor counts are full or nearly so, which does not show that the dose was tolerated: the source hardly ever lists a survival T/C far under the control, and the zero likely stands for such cases as well. Survivors were counted at the toxicity check, usually on the fifth day, unless a day is given; later deaths do not show. Schedule codes are those of the source, read here as Q, the interval in days (D) or hours (H), X, the number of doses. Some molecules as drawn cover several salts, stereoisomers or complexes of the source; a dose is that of the sample tested. Some entries were tested several times; the results are listed from low to high. For survival time, the PubChem record calls one and a half times the control and up active, and a quarter to a half above the control has no call in these data; cut-offs in other NCI protocols can differ.

The assay deals with BDF1 mice, B16 melanoma ip, median survival T/C. The assay is described as follows: NCI In Vivo Anticancer Drug Screen. Data for tumor model B16 Melanoma (intraperitoneal) in B6D2F1 (BDF1) mice. The note with it: T/C endpoint: median survival time, higher T/C = longer survival. Summed up:
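Compounds were tested in mice carrying transplantable tumors. Survival or tumor size was recorded, and each value is the treated-group measurement (T) divided by that of the vehicle-treated control group (C).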

With `CO[C@H]1/C=C/O[C@@]2(C)Oc3c(C)c(O)c4c(O)c(c(/C=N/N5C(C)CN(Cc6ccccc6)CC5C)c(O)c4c3C2=O)NC(=O)/C(C)=C\C=C\[C@H](C)[C@H](O)[C@@H](C)[C@@H](O)[C@@H](C)[C@H](OC(C)=O)[C@@H]1C` (stereo partly specified), the survivor count runs as follows: (dose: 4.0 mg/kg/injection, schedule: Q03HX024 (ip), vehicle: clinical formulation) 9 of 10; (dose: 4.0 mg/kg/injection, schedule: Q03HX040 (ip), vehicle: clinical formulation) 9 of 10; (dose: 4.0 mg/kg/injection, schedule: Q03HX088 (ip), vehicle: Klucel (hydroxypropylcellulose) (HPC)) 10 of 10; (dose: 4.0 mg/kg/injection, schedule: Q03HX088 (ip), vehicle: other) 9 of 10; (dose: 8.0 mg/kg/injection, schedule: Q01DX020 (ip), vehicle: clinical formulation) 8 of 10; (dose: 8.0 mg/kg/injection, schedule: Q03HX040 (ip), vehicle: clinical formulation) 9 of 10. Besides, the survivor count (dose: 8.0 mg/kg/injection, schedule: Q03HX088 (ip), vehicle: Klucel (hydroxypropylcellulose) (HPC)) is recorded as 10 of 10; the survivor count (dose: 8.0 mg/kg/injection, schedule: Q03HX088 (ip), vehicle: other) is recorded as 9 of 10; the survivor count (dose: 16.0 mg/kg/injection, schedule: Q01DX020 (ip), vehicle: clinical formulation) was 9 of 10; the survivor count (dose: 16.0 mg/kg/injection, schedule: Q02DX010 (ip), vehicle: clinical formulation) is recorded as 8 of 10; the survivor count (dose: 16.0 mg/kg/injection, schedule: Q03HX024 (ip), vehicle: clinical formulation) is 9 of 10; the survivor count (dose: 16.0 mg/kg/injection, schedule: Q03HX040 (ip), vehicle: clinical formulation) is 10 of 10. Besides, the survivor count is 10 of 10 (dose: 16.0 mg/kg/injection, schedule: Q03HX088 (ip), vehicle: Klucel (hydroxypropylcellulose) (HPC)); 10 of 10 (dose: 16.0 mg/kg/injection, schedule: Q03HX088 (ip), vehicle: other); 10 of 10 (dose: 32.0 mg/kg/injection, schedule: Q01DX020 (ip), vehicle: clinical formulation); 10 of 10 (dose: 32.0 mg/kg/injection, schedule: Q02DX010 (ip), vehicle: clinical formulation); 7 of 10 (dose: 32.0 mg/kg/injection, schedule: Q03HX008 (ip), vehicle: clinical formulation); 7 of 10 (dose: 32.0 mg/kg/injection, schedule: Q03HX040 (ip), vehicle: clinical formulation). The survivor count is, setting by setting: (dose: 32.0 mg/kg/injection, schedule: Q03HX088 (ip), vehicle: Klucel (hydroxypropylcellulose) (HPC)) 8 of 10; (dose: 32.0 mg/kg/injection, schedule: Q03HX088 (ip), vehicle: other) 10 of 10; (dose: 32.0 mg/kg/injection, schedule: Q04DX005 (ip), vehicle: clinical formulation) 7 of 10; (dose: 32.0 mg/kg/injection, schedule: Q08DX003 (ip), vehicle: clinical formulation) 5 of 10; (dose: 64.0 mg/kg/injection, schedule: Q01DX001 (ip), vehicle: clinical formulation) 9 of 10; (dose: 64.0 mg/kg/injection, schedule: Q01DX020 (ip), vehicle: clinical formulation) 10 of 10. Besides, the survivor count is given as 10 of 10 (dose: 64.0 mg/kg/injection, schedule: Q02DX010 (ip), vehicle: clinical formulation); 6 of 10 (dose: 64.0 mg/kg/injection, schedule: Q03HX008 (ip), vehicle: clinical formulation); 7 of 10 (dose: 64.0 mg/kg/injection, schedule: Q03HX024 (ip), vehicle: clinical formulation); 5 of 10 (dose: 64.0 mg/kg/injection, schedule: Q03HX040 (ip), vehicle: clinical formulation); 9 of 10 (dose: 64.0 mg/kg/injection, schedule: Q03HX088 (ip), vehicle: Klucel (hydroxypropylcellulose) (HPC)); 7 of 10 (dose: 64.0 mg/kg/injection, schedule: Q03HX088 (ip), vehicle: other). The survivor count is recorded as 9 of 10 (dose: 128.0 mg/kg/injection, schedule: Q01DX001 (ip), vehicle: clinical formulation); 7 of 10 (dose: 128.0 mg/kg/injection, schedule: Q01DX020 (ip), vehicle: clinical formulation); 9 of 10 (dose: 128.0 mg/kg/injection, schedule: Q02DX010 (ip), vehicle: clinical formulation); 0 of 10 (dose: 128.0 mg/kg/injection, schedule: Q03HX008 (ip), vehicle: clinical formulation); 0 of 10 (dose: 128.0 mg/kg/injection, schedule: Q03HX024 (ip), vehicle: clinical formulation); 7 of 10 (dose: 128.0 mg/kg/injection, schedule: Q04DX005 (ip), vehicle: clinical formulation). Further, the survivor count is 8 of 10 (dose: 128.0 mg/kg/injection, schedule: Q08DX003 (ip), vehicle: clinical formulation); 0 of 10 (dose: 256.0 mg/kg/injection, schedule: Q01DX020 (ip), vehicle: clinical formulation); 5 of 10 (dose: 256.0 mg/kg/injection, schedule: Q02DX010 (ip), vehicle: clinical formulation); 9 of 10 (dose: 256.0 mg/kg/injection, schedule: Q04DX005 (ip), vehicle: clinical formulation); 7 of 10 (dose: 256.0 mg/kg/injection, schedule: Q08DX003 (ip), vehicle: clinical formulation); 9 of 10 (dose: 400.0 mg/kg/injection, schedule: Q01DX009 (ip), vehicle: saline). Besides, the survivor count by setting is: (dose: 512.0 mg/kg/injection, schedule: Q01DX001 (ip), vehicle: clinical formulation) 2 of 10; (dose: 512.0 mg/kg/injection, schedule: Q02DX010 (ip), vehicle: clinical formulation) 0 of 10; (dose: 512.0 mg/kg/injection, schedule: Q04DX005 (ip), vehicle: clinical formulation) 0 of 10; (dose: 512.0 mg/kg/injection, schedule: Q08DX003 (ip), vehicle: clinical formulation) 2 of 10; (dose: 1024.0 mg/kg/injection, schedule: Q01DX001 (ip), vehicle: clinical formulation) 0 of 10; (dose: 1024.0 mg/kg/injection, schedule: Q08DX003 (ip), vehicle: clinical formulation) 0 of 10. The T/C (dose: 100.0 mg/kg/injection, schedule: Q01DX009 (ip), vehicle: saline) is 130 % of control.

For `Cc1c[n+]2ccccc2n1C`, the survivor count (dose: 200.0 mg/kg/injection, schedule: Q01DX009 (ip), vehicle: saline with Tween-80) was 0 of 10 and 3 of 10.

For `FC(F)(F)c1ccc2c(c1)N(CCCNCCN1CCOCC1)c1ccccc1S2`, the survivor count runs as follows: (dose: 3.12 mg/kg/injection, schedule: Q04DX003 (ip), vehicle: saline) 10 of 10; (dose: 6.25 mg/kg/injection, schedule: Q01DX009 (ip), vehicle: saline) 10 of 10; (dose: 25.0 mg/kg/injection, schedule: Q01DX009 (ip), vehicle: saline) 10 of 10; (dose: 100.0 mg/kg/injection, schedule: Q04DX003 (ip), vehicle: saline) 0 of 10; (dose: 200.0 mg/kg/injection, schedule: Q04DX003 (ip), vehicle: saline) 0 of 10; (dose: 400.0 mg/kg/injection, schedule: Q04DX003 (ip), vehicle: saline) 0 of 10.

Take `O=C(O)c1ccccc1C(=O)Nc1cc(Cl)ccc1Cl`: the survivor count (dose: 200.0 mg/kg/injection, schedule: Q01DX009 (ip), vehicle: Klucel (hydroxypropylcellulose) (HPC)) is recorded as 10 of 10.

For `c1cc2ccc3ccc(C4CO4)c4ccc(c1)c2c34` (stereo unspecified), the survivor count (dose: 50.0 mg/kg/injection, schedule: Q01DX009 (ip), vehicle: Klucel (hydroxypropylcellulose) (HPC)) is 10 of 10.

Turning to `O=C1CCC(=O)N1CO`, the T/C reads like this: (dose: 150.0 mg/kg/injection, schedule: Q01DX009 (ip), vehicle: saline) 138 % of control; (dose: 300.0 mg/kg/injection, schedule: Q01DX009 (ip), vehicle: saline, evaluated on day 45) 147 % of control; (dose: 300.0 mg/kg/injection, schedule: Q01DX009 (ip), vehicle: saline, evaluated on day 60) 125 % of control.
